Source: US9469650B2, “Melampomagnolide B derivatives” (BOARD OF TRUSTEES OF THE UNIVERSITY OF ARKANSAS, priority 2013, dated 2016)
At least one read-out could not be matched to a standard name with certainty.

Key:
IGROV1 = experiment: panel of 60 human tumor cell lines, growth inhibition (Ovarian Cancer); conditions: IGROVI
MDA-MB-435 = experiment: panel of 60 human tumor cell lines, growth inhibition (Melanoma)
UACC-62 = experiment: as above
SK-OV-3 = experiment: panel of 60 human tumor cell lines, growth inhibition (Ovarian Cancer)
NCI-H460 = experiment: panel of 60 human tumor cell lines, growth inhibition (Non-Small Cell Lung Cancer)
NCI/ADR-RES = experiment: panel of 60 human tumor cell lines, growth inhibition (Ovarian Cancer)
SW-620 = experiment: panel of 60 human tumor cell lines, growth inhibition (Colon Cancer)
U251 = experiment: panel of 60 human tumor cell lines, growth inhibition (CNS Cancer)
BT-549 = experiment: panel of 60 human tumor cell lines, growth inhibition (Breast Cancer); conditions: BT-549
OVCAR-4 = experiment: panel of 60 human tumor cell lines, growth inhibition (Ovarian Cancer); type: cell-based
NCI-H23 = experiment: panel of 60 human tumor cell lines, growth inhibition (Non-Small Cell Lung Cancer)
ACHN = experiment: panel of 60 human tumor cell lines, growth inhibition (Renal Cancer)
OVCAR-8 = experiment: panel of 60 human tumor cell lines, growth inhibition (Ovarian Cancer)
HOP-92 = experiment: panel of 60 human tumor cell lines, growth inhibition (Non-Small Cell Lung Cancer)
CAKI-1 = experiment: panel of 60 human tumor cell lines, growth inhibition (Renal Cancer)
DU-145 = experiment: panel of 60 human tumor cell lines, growth inhibition (Prostate Cancer)
NCI-H522 = experiment: panel of 60 human tumor cell lines, growth inhibition (Non-Small Cell Lung Cancer)
NCI-H226 = experiment: as above
MOLT-4 = experiment: panel of 60 human tumor cell lines, growth inhibition (Leukemia)
MCF7 = experiment: panel of 60 human tumor cell lines, growth inhibition (Breast Cancer)
HCT-15 = experiment: panel of 60 human tumor cell lines, growth inhibition (Colon Cancer)

For `C=C1C(=O)O[C@H]2[C@H]1CC/C(COC(=O)NCCN1CCOCC1)=C\CC[C@@]1(C)O[C@@H]21` [JVM 57, ((1aR,7aS,10aS,10bS,E)-1a-methyl-8-methylene-9-oxo-1a,2,3,6,7,7a,8,9,10a,10b-decahydrooxireno[2′,3′:9,10]-cyclodeca[1,2-b]furan-5-yl)-methyl(2-morpholinoethyl)carbamate], the “Percent Growth” value (IGROV1; Log10 Concentration −4.0) was −69%, the “Percent Growth” value (IGROV1; Log10 Concentration −5.0) was 14% and the “Percent Growth” value (IGROV1; Log10 Concentration −6.0) was 93%. For the same molecule, the “Percent Growth” value (IGROV1; Log10 Concentration −7.0) was 100%, the “Percent Growth” value (IGROV1; Log10 Concentration −8.0) was 110% and the “Percent Growth” value (MDA-MB-435; Log10 Concentration −4.0) was −68%. For the same molecule, the “Percent Growth” value (MDA-MB-435; Log10 Concentration −5.0) was 36%, the “Percent Growth” value (MDA-MB-435; Log10 Concentration −6.0) was 98% and the “Percent Growth” value (MDA-MB-435; Log10 Concentration −7.0) was 99%. The “Percent Growth” value (MDA-MB-435; Log10 Concentration −8.0) was 97%, the “Percent Growth” value (UACC-62; Log10 Concentration −4.0) was −92% and the “Percent Growth” value (UACC-62; Log10 Concentration −5.0) was 61%. The “Percent Growth” value (UACC-62; Log10 Concentration −6.0) was 94%, the “Percent Growth” value (UACC-62; Log10 Concentration −7.0) was 94% and the “Percent Growth” value (UACC-62; Log10 Concentration −8.0) was 101%. For the same molecule, the “Percent Growth” value (SK-OV-3; Log10 Concentration −4.0) was 25%, the “Percent Growth” value (SK-OV-3; Log10 Concentration −5.0) was 105% and the “Percent Growth” value (SK-OV-3; Log10 Concentration −6.0) was 112%. The “Percent Growth” value (SK-OV-3; Log10 Concentration −7.0) was 104%, the “Percent Growth” value (SK-OV-3; Log10 Concentration −8.0) was 105% and the “Percent Growth” value (NCI-H460; Log10 Concentration −4.0) was −6%. For the same molecule, the “Percent Growth” value (NCI-H460; Log10 Concentration −5.0) was 93%, the “Percent Growth” value (NCI-H460; Log10 Concentration −6.0) was 99% and the “Percent Growth” value (NCI-H460; Log10 Concentration −7.0) was 100%. For the same molecule, the “Percent Growth” value (NCI-H460; Log10 Concentration −8.0) was 102%, the “Percent Growth” value (NCI/ADR-RES; Log10 Concentration −4.0) was 31% and the “Percent Growth” value (NCI/ADR-RES; Log10 Concentration −5.0) was 98%. For the same molecule, the “Percent Growth” value (NCI/ADR-RES; Log10 Concentration −6.0) was 105%, the “Percent Growth” value (NCI/ADR-RES; Log10 Concentration −7.0) was 106% and the “Percent Growth” value (NCI/ADR-RES; Log10 Concentration −8.0) was 103%. The “Percent Growth” value (SW-620; Log10 Concentration −4.0) was −64%, the “Percent Growth” value (SW-620; Log10 Concentration −5.0) was 11% and the “Percent Growth” value (SW-620; Log10 Concentration −6.0) was 96%. The “Percent Growth” value (SW-620; Log10 Concentration −7.0) was 98%, the “Percent Growth” value (SW-620; Log10 Concentration −8.0) was 98% and the “Percent Growth” value (U251; Log10 Concentration −4.0) was 25%. For the same molecule, the “Percent Growth” value (U251; Log10 Concentration −5.0) was 92%, the “Percent Growth” value (U251; Log10 Concentration −6.0) was 94% and the “Percent Growth” value (U251; Log10 Concentration −7.0) was 91%. The “Percent Growth” value (U251; Log10 Concentration −8.0) was 95%, the “Percent Growth” value (BT-549; Log10 Concentration −4.0) was −85% and the “Percent Growth” value (BT-549; Log10 Concentration −5.0) was 28%. For the same molecule, the “Percent Growth” value (BT-549; Log10 Concentration −6.0) was 100%, the “Percent Growth” value (BT-549; Log10 Concentration −7.0) was 99% and the “Percent Growth” value (BT-549; Log10 Concentration −8.0) was 103%. The “Percent Growth” value (OVCAR-4; Log10 Concentration −4.0) was −75%, the “Percent Growth” value (OVCAR-4; Log10 Concentration −5.0) was 50% and the “Percent Growth” value (OVCAR-4; Log10 Concentration −6.0) was 87%. The “Percent Growth” value (OVCAR-4; Log10 Concentration −7.0) was 94%, the “Percent Growth” value (OVCAR-4; Log10 Concentration −8.0) was 96% and the “Percent Growth” value (NCI-H23; Log10 Concentration −4.0) was −60%. The “Percent Growth” value (NCI-H23; Log10 Concentration −5.0) was 77%, the “Percent Growth” value (NCI-H23; Log10 Concentration −6.0) was 103% and the “Percent Growth” value (NCI-H23; Log10 Concentration −7.0) was 104%. For the same molecule, the “Percent Growth” value (NCI-H23; Log10 Concentration −8.0) was 100%, the “Percent Growth” value (ACHN; Log10 Concentration −4.0) was −86% and the “Percent Growth” value (ACHN; Log10 Concentration −5.0) was 16%. The “Percent Growth” value (ACHN; Log10 Concentration −6.0) was 96%, the “Percent Growth” value (ACHN; Log10 Concentration −7.0) was 102% and the “Percent Growth” value (ACHN; Log10 Concentration −8.0) was 102%. For the same molecule, the “Percent Growth” value (OVCAR-8; Log10 Concentration −4.0) was −47%, the “Percent Growth” value (OVCAR-8; Log10 Concentration −5.0) was 61% and the “Percent Growth” value (OVCAR-8; Log10 Concentration −6.0) was 97%. For the same molecule, the “Percent Growth” value (OVCAR-8; Log10 Concentration −7.0) was 100%, the “Percent Growth” value (OVCAR-8; Log10 Concentration −8.0) was 100% and the “Percent Growth” value (HOP-92; Log10 Concentration −4.0) was −90%. The “Percent Growth” value (HOP-92; Log10 Concentration −5.0) was −6%, the “Percent Growth” value (HOP-92; Log10 Concentration −6.0) was 82% and the “Percent Growth” value (HOP-92; Log10 Concentration −7.0) was 104%. For the same molecule, the “Percent Growth” value (HOP-92; Log10 Concentration −8.0) was 82%, the “Percent Growth” value (CAKI-1; Log10 Concentration −4.0) was −79% and the “Percent Growth” value (CAKI-1; Log10 Concentration −5.0) was 26%. The “Percent Growth” value (CAKI-1; Log10 Concentration −6.0) was 91%, the “Percent Growth” value (CAKI-1; Log10 Concentration −7.0) was 93% and the “Percent Growth” value (CAKI-1; Log10 Concentration −8.0) was 94%. For the same molecule, the “Percent Growth” value (DU-145; Log10 Concentration −4.0) was −99%, the “Percent Growth” value (DU-145; Log10 Concentration −5.0) was 14% and the “Percent Growth” value (DU-145; Log10 Concentration −6.0) was 98%. For the same molecule, the “Percent Growth” value (DU-145; Log10 Concentration −7.0) was 106%, the “Percent Growth” value (DU-145; Log10 Concentration −8.0) was 108% and the “Percent Growth” value (NCI-H522; Log10 Concentration −4.0) was −74%. The “Percent Growth” value (NCI-H522; Log10 Concentration −5.0) was −26%, the “Percent Growth” value (NCI-H522; Log10 Concentration −6.0) was 87% and the “Percent Growth” value (NCI-H522; Log10 Concentration −7.0) was 99%. For the same molecule, the “Percent Growth” value (NCI-H522; Log10 Concentration −8.0) was 95%, the “Percent Growth” value (NCI-H226; Log10 Concentration −4.0) was 35% and the “Percent Growth” value (NCI-H226; Log10 Concentration −5.0) was 75%. For the same molecule, the “Percent Growth” value (NCI-H226; Log10 Concentration −6.0) was 82%, the “Percent Growth” value (NCI-H226; Log10 Concentration −7.0) was 88% and the “Percent Growth” value (NCI-H226; Log10 Concentration −8.0) was 83%. For the same molecule, the “Percent Growth” value (MOLT-4; Log10 Concentration −4.0) was −47%, the “Percent Growth” value (MOLT-4; Log10 Concentration −5.0) was 26% and the “Percent Growth” value (MOLT-4; Log10 Concentration −6.0) was 105%. For the same molecule, the “Percent Growth” value (MOLT-4; Log10 Concentration −7.0) was 107%, the “Percent Growth” value (MOLT-4; Log10 Concentration −8.0) was 107% and the “Percent Growth” value (MCF7; Log10 Concentration −4.0) was −74%. For the same molecule, the “Percent Growth” value (MCF7; Log10 Concentration −5.0) was 14%, the “Percent Growth” value (MCF7; Log10 Concentration −6.0) was 94% and the “Percent Growth” value (MCF7; Log10 Concentration −7.0) was 89%. For the same molecule, the “Percent Growth” value (MCF7; Log10 Concentration −8.0) was 96%, the “Percent Growth” value (HCT-15; Log10 Concentration −4.0) was −45% and the “Percent Growth” value (HCT-15; Log10 Concentration −5.0) was 52%. For the same molecule, the “Percent Growth” value (HCT-15; Log10 Concentration −6.0) was 94%, the “Percent Growth” value (HCT-15; Log10 Concentration −7.0) was 94% and the “Percent Growth” value (HCT-15; Log10 Concentration −8.0) was 99%.
